# Results are given in words; binding and its absence hold for the method and conditions named. Binding seen in cells or lysates may run through a third protein. Here binding means that the protein was enriched with, or labelled near, the bait; the list need not be complete. Sequences can lack the tags named with a protein.
# T1: AC102 fused to a Twin-Strep-tag (Autographa californica multiple nucleopolyhedrovirus (AcMNPV)) (UniProt P41482)
# T1 sequence: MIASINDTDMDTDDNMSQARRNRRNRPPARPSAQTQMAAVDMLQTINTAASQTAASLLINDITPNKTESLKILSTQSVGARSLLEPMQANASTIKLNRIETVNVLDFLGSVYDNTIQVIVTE
# B1: E25 (protein, UniProt P41483 1-228)
# chain: MWGIVLLIVLLILFYLYWTNALNFNSLTESSPSLGQSSDSVELDENKQLNVKLNNGRVANLRIAHGDNKLSQVYIAEKPLSIDDIVKEGSNKVGTNSVFLGTVYDYGIKSPNAASTSSNVTMTRGAANFDIKEFKSMFIVFKGVTPTKTVEDNGMLRFEVDNMIVCLIDPNTAPLSEREVRELRKSNCTLVYTRNAAAQQVLLENNFTVINAEQTAYLKNYKSYREMN
# B2: E18 (protein, UniProt P41701 1-90)
# chain: MIYTDPTTGATTSTDAPSTNYLNRLTPNMFLTILAVVVIIALIIIFVQSSSNGNSSGGNVPPNALGGFVNPLNATMRANPFMNTPQRQML
# B3: VP39 (protein, UniProt P17499 1-347)
# chain: MALVPVGMAPRQMRVNRCIFASIVSFDACITYKSPCSPDAYHDDGWFICNNHLIKRFKMSKMVLPIFDEDDNQFKMTIARHLVGNKERGIKRILIPSATNYQDVFNLNSMMQAEQLIFHLIYNNENAVNTICDNLKYTEGFTSNTQRVIHSVYATTKSILDTTNPNTFCSRVSRDELRFFDVTNARALRGGAGDQLFNNYSGFLQNLIRRAVAPEYLQIDTEELRFRNCATCIIDETGLVASVPDGPELYNPIRSSDIMRSQPNRLQIRNVLKFEGDTRELDRTLSGYEEYPTYVPLFLGYQIINSENNFLRNDFIPRANPNATLGGGAVAGPAPGVAGEAGGGIAV
# B4: VP80 (protein, UniProt Q00733 1-691)
# chain: MNDSNSLLITRLAAQILSRNMQTVDVIVDDKTLSLEEKIDTLTSMVLAVNSPPQSPPRVTSSDLAASIIKNNSKMVGNDFEMRYNVLRMAVVFVKHYPKYYNETTAGLVAEIESNLLQYQNYVNQGNYQNIEGYDSLLNKAEECYVKIDRLFKESIKKIMDDTEAFEREQEAERLRAEQTAANALLERRAQTSADDVVNRADANIPTAFSDPLPGPSAPRYMYESSESDTYMETARRTAEHYTDQDKDYNAAYTADEYNSLVKTVLLRLIEKALATLKNRLHITTIDQLKKFRDYLNSDADAGEFQIFLNQEDCVILKNLSNLASKFFNVRCVADTLEVMLEALRNNIELVQPESDAVRRIVIKMTQEIKDSSTPLYNIAMYKSDYDAIKNKNIKTLFDLYNDRLPINFLDTSATSPVRKTSGKRSAEDDLLPTRSSKRANRPEINVISSEDEQEDDDVEDVDYEKESKRRKLEDEDFLKLKALEFSKDIVNEKLQKIIVVTDGMKRLYEYCNCKNSLETLPSAANYGSLLKRLNLYNLDHIEMNVNFYELLFPLTLYNDNDNSDKTLSHQLVNYIFLASNYFQNCAKNFNYMRETFNVFGPFKQIDFMVMFVIKFNFLCDMRNFAKLIDELVPNKQPNMRIHSVLVMRDKIVKLAFSNLQFQTFSKKDKSRNTKHLQRLIMLMNANYNVI
# Target: T1, AC102 fused to a Twin-Strep-tag (Autographa californica multiple nucleopolyhedrovirus (AcMNPV))
# Assay: affinity purification with mass spectrometry
row,Molecule,binding
1,ODV-EC27,binds
2,B1,binds
3,B2,binds
4,B3,binds
5,B4,binds

# — publication doi:10.1101/248278
